In the supplement of paper PMC11150407:
“And” between values parts separate entries of the source, which are not always exact repeats. Equal entries are not always repeated. Structures can show the parent of a compound that is named as a salt. Screen size: about 2,100 compounds; about 180 (8.6%) showed an effect of 50% or more. The list shows a part of the results.

Test system: MOLM1 and UCSD/AML1 (averaged)
Experiment: cell viability relative to DMSO control (POC); higher = less growth inhibition
Conditions: 1 µM; 72 h
Method: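 Primary viability screen in the 3q26 EVI1-high AML cell lines MOLM1 and UCSD/AML1 (1.5e3 cells/well, 384-well), compounds at 1 uM for 72 h. ATP CellTiter-Glo read-out given as percent of viable cells over DMSO control (POC), averaged over duplicates. DMSO was the negative control and 5 uM etoposide the positive control. This mapping covers the MicroSource Spectrum and Selleck anticancer libraries (drug names).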

Compound | cell viability
CN(C)CC[C@@H](c1ccc(Cl)cc1)c1ccccn1 | 99% and 100%
CN(CCOc1ccc(CC2SC(=O)NC2=O)cc1)c1ccccn1 (stereo not given) [Rosiglitazone (Avandia)] | 55.1%
Nc1cc(-c2ccncc2)c[nH]c1=O | 102%
C[C@H]1C[C@@H]2[C@H]([C@@H](O)C[C@@]3(C)[C@H]2CC[C@]3(O)C(=O)COC(=O)CCC(=O)O)[C@@]2(C)C=CC(=O)C=C12 | 90%
Fc1cc(-c2cccc3ncc(-c4cnn(C5CCNCC5)c4)nc23)cc(F)c1CN1CCOCC1 | 24.6%
COC(=O)C(N)CS (stereo not given) | 100%
CC(N)C12CC3CC(CC(C3)C1)C2 (stereo not given) | 105%
CN(C)[C@@H]1C(O)=C(C(N)=O)C(=O)[C@@]2(O)C(O)=C3C(=O)c4c(O)ccc(Cl)c4[C@@H](O)[C@H]3C[C@@H]12 | 94.3%
NC(N)=O | 93.1%
Cn1c([N+](=O)[O-])cnc1COC(N)=O | 100%
N[C@@H](C(=O)N[C@@H]1C(=O)N2C(C(=O)O)=C(Cl)CS[C@H]12)c1ccccc1 | 97.7%
CC(Oc1ccccc1)C(=O)N[C@@H]1C(=O)N2[C@@H]1SC(C)(C)[C@@H]2C(=O)O (stereo not given in full) | 93.2%
COc1ccc(-c2cc(C(F)F)nn2-c2ccc(S(N)(=O)=O)cc2)cc1F | 88.1%
C[C@@H]1CC[C@@]2(OC1)O[C@H]1C[C@H]3[C@@H]4CC[C@@H]5C[C@@H](O)CC[C@]5(C)[C@H]4CC[C@]3(C)[C@H]1[C@@H]2C | 97.4%
CCOC(=O)[C@H](CCc1ccccc1)N[C@@H](C)C(=O)N1CCC[C@H]1C(=O)O | 104%
CC(=O)N[C@@H](Cc1ccccc1)C(=O)O | 100%
Cn1nnnc1SCC1=C(C(=O)O)N2C(=O)[C@@H](NC(=O)[C@H](OC=O)c3ccccc3)[C@H]2SC1 | 104%
COc1cc(O)c(C)c(O)c1 | 106%
OCC(O)C(O)C(O)C(O)C(O)CO (stereo not given) | 102%
C[C@H](CCC(=O)O)[C@H]1CC[C@H]2[C@@H]3CC[C@@H]4CCCC[C@]4(C)[C@H]3CC[C@]12C | 98.9%
N=C(N)NC(=O)c1nc(Cl)c(N2CCCCCC2)nc1N | 102%
C=CC(=O)N1CCC[C@@H](n2nc(-c3ccc(Oc4ccccc4)cc3)c3c(N)ncnc32)C1 | 60.3%
CC1=C(CC(=O)O)c2cc(F)ccc2/C1=C\c1ccc([S+](C)[O-])cc1 (stereo not given) | 105%

Five neighbouring records out of the list so far, quoted:
Compound | cell viability
Nc1cc(-c2ccncc2)c[nH]c1=O | 102%
C[C@H]1C[C@@H]2[C@H]([C@@H](O)C[C@@]3(C)[C@H]2CC[C@]3(O)C(=O)COC(=O)CCC(=O)O)[C@@]2(C)C=CC(=O)C=C12 | 90%
Fc1cc(-c2cccc3ncc(-c4cnn(C5CCNCC5)c4)nc23)cc(F)c1CN1CCOCC1 | 24.6%
COC(=O)C(N)CS (stereo not given) | 100%
CC(N)C12CC3CC(CC(C3)C1)C2 (stereo not given) | 105%

(list continues)

Compound | cell viability
Cc1nc(N)sc1-c1ccnc(Nc2ccc(N3CCOCC3)cc2)n1 | 46.7%
CN(C)CCCO[C@@H]1[C@H]2OC(C)(C)O[C@H]2O[C@@H]1[C@H](O)CO | 105%
C[C@]12CC[C@@H]3c4ccc(O)cc4CC[C@H]3[C@@H]1C[C@@H](O)[C@@H]2O | 98.6%
CCCCC(=O)O[C@]1(C(=O)CO)CC[C@H]2[C@@H]3CCC4=CC(=O)CC[C@]4(C)[C@H]3[C@@H](O)C[C@@]21C | 81.2%
CCc1cccc2c3c([nH]c12)C(CC)(CC(=O)O)OCC3 (stereo not given) | 96.5%
Cc1noc(NS(=O)(=O)c2ccc(N)cc2)c1C | 111%
OCCOCCN1CCN(C(c2ccccc2)c2ccc(Cl)cc2)CC1 (stereo not given) | 105%
Cc1ccccc1N1C(=O)c2cc(S(N)(=O)=O)c(Cl)cc2NC1C (stereo not given) | 101%
CO[C@H]1[C@H](O)[C@@H](O)[C@H](O)[C@H](O)[C@H]1O | 95.8%
Cc1cc(-n2c(=O)[nH]c(=O)n(C)c2=O)ccc1Oc1ccc(SC(F)(F)F)cc1 | 108%
CC(C)CCC[C@@H](C)[C@H]1CC[C@H]2[C@@H]3C(=O)C=C4C[C@@H](O)CC[C@]4(C)[C@H]3CC[C@]12C | 95.7%
COc1ccc(-c2coc3c(OC)c(OC)cc(O)c3c2=O)cc1 | 101%
COc1ccc2[nH]c([S+]([O-])Cc3ncc(C)c(OC)c3C)nc2c1 (stereo not given) | 92.4%
CCCCC(CC)CN=C(N)N=C(N)NCCCCCCNC(N)=NC(N)=NCC(CC)CCCC (stereo not given) | 7.07%
CC(=O)Nc1ccc(O)cc1 | 102%
CC(=O)Oc1c(C)c(C)c2c(c1C)CCC(C)(CCCC(C)CCCC(C)CCCC(C)C)O2 (stereo not drawn) [alpha-TOCHOPHERYL ACETATE] | 104%
Nc1cccc2c1CN(C1CCC(=O)NC1=O)C2=O (stereo not given) [Lenalidomide] | 103%
C=CCSCC(N)C(=O)O (stereo not given) | 121%
O=c1ccc2ccc(O)c(O)c2o1 | 115%
O.O.O.O.O=C([O-])CC(O)(CC(=O)[O-])C(=O)[O-].[Li+].[Li+].[Li+] | 91%
CN1CCC(=C2c3ccccc3CC(=O)c3sccc32)CC1 | 88.8%
CCCN(CCC)C(=O)C(CCC(=O)O)NC(=O)c1ccccc1 (stereo not given) | 99.1%
O=C(O)CC[C@H]1CC[C@@](c2cc(F)ccc2F)(S(=O)(=O)c2ccc(Cl)cc2)CC1 | 71%

Compound | cell viability
CC[C@H](CC[C@@H](C)[C@H]1CC[C@H]2[C@@H]3CC=C4C[C@@H](O)CC[C@]4(C)[C@H]3CC[C@]12C)C(C)C [beta-SITOSTEROL] | 104%
CC(C)(Sc1cc(C(C)(C)C)c(O)c(C(C)(C)C)c1)Sc1cc(C(C)(C)C)c(O)c(C(C)(C)C)c1 | 99.2%
CS(=O)(=O)CCNCc1ccc(-c2ccc3ncnc(Nc4ccc(OCc5cccc(F)c5)c(Cl)c4)c3c2)o1 [Lapatinib Ditosylate (Tykerb)] | 109%
CS(=O)(=O)CCNCc1ccc(-c2ccc3ncnc(Nc4ccc(OCc5cccc(F)c5)c(Cl)c4)c3c2)o1 [Lapatinib] | 64.7%
COc1cc(-c2coc3cc(OC)c(OC)c(OC)c3c2=O)cc(OC)c1OC | 96%
Cn1ccnc1S | 94.2%
Nc1c(Br)cc(Br)cc1CN[C@H]1CC[C@H](O)CC1 | 91.6%
Oc1ccc(Cl)c2cccnc12 | 100%
CC(=O)NO | 101%
COc1ccc(-c2c(O)c3c(OC)c4c(cc3oc2=O)OC(C)(C)C=C4)cc1 | 93.5%
CN1CCCN=C1COC(=O)C(O)(c1ccccc1)C1CCCCC1 (stereo not given) | 94.5%
COc1cc(Nc2ncc(F)c(Nc3ccc4c(n3)NC(=O)C(C)(C)O4)n2)cc(OC)c1OC [R406(free base)] | 56.8%
CCCCCCCCCCC[C@@H](C[C@@H]1OC(=O)[C@H]1CCCCCC)OC(=O)[C@H](CC(C)C)NC=O | 71%
CS(=O)(=O)c1cccc(CNc2nc(Nc3ccc4c(c3)CCC(=O)N4)ncc2C(F)(F)F)c1 | 83.3%
COc1cc(C/C=C/c2ccccc2)c(OC)cc1O | 93.6%
O=C1O[C@H](CO)[C@@H](O)[C@H](O)[C@H]1O | 103%
O=C(O)CCCN1C(=O)c2cccc3cccc(c23)C1=O | 103%
CO[C@H]1C[C@H](O[C@H]2[C@H](C)[C@@H](O[C@@H]3O[C@H](C)C[C@H](N(C)C)[C@H]3OC(C)=O)[C@@H](C)C[C@@]3(CO3)C(=O)[C@H](C)[C@@H](OC(C)=O)[C@@H](C)[C@@H](C)OC(=O)[C@@H]2C)O[C@@H](C)[C@@H]1OC(C)=O | 102%
CC(C)(S)[C@@H](N)C(=O)O | 113%
CN1CCN(C2=Nc3cc(Cl)ccc3Nc3ccccc32)CC1 | 91.4%
CO[C@@H](C(=O)N1Cc2[nH]nc(NC(=O)c3ccc(N4CCN(C)CC4)cc3)c2C1)c1ccccc1 | 13.4%
C=C1C2CC[C@@]3(C)[C@H](c4ccoc4)OC(=O)C[C@]13O[C@H]1CC(O)C(C)(C)C(CC(=O)OC)[C@@]21C (stereo partly drawn) [3alpha-HYDROXY-3-DEOXYANGOLENSIC ACID METHYL ESTER] | 97.3%
COc1c(O)cc2c(-c3ccccc3)cc(=O)oc2c1OC | 92.8%

Compound | cell viability
CC(=O)O[C@H]1CC[C@]2(C)C3=C(CC[C@H]2C1(C)C)[C@]1(C)CC[C@H]([C@H](C)CCC=C(C)C)[C@@]1(C)CC3 | 94.1%
O=C(O)c1ccccc1Nc1ccccc1 | 116%
N=C1C=CC(=C(c2ccc(N)cc2)c2ccc(N)cc2)C=C1 | 82.5%
Clc1ccc(COC(Cn2ccnc2)c2ccc(Cl)cc2Cl)c(Cl)c1 (stereo not given) | 99%
Cc1cc(=O)n(-c2ccccc2)n1C | 106%
O=C(O)c1cc(O)c2c(c1)[C@@H]([C@H]1c3cc(C(=O)O)cc(O)c3C(=O)c3c(O[C@@H]4O[C@H](CO)[C@@H](O)[C@H](O)[C@H]4O)cccc31)c1cccc(O[C@@H]3O[C@H](CO)[C@@H](O)[C@H](O)[C@H]3O)c1C2=O | 110%
NC12CC3CC(CC(C3)C1)C2 | 98.7%
CN1CC(=O)NC1=N | 104%
O=C(Cc1ccc(-c2ccc(OCCN3CCOCC3)cc2)cn1)NCc1ccccc1 | 8.82%
Nc1ncn([C@H]2C[C@H](O)[C@@H](CO)O2)c(=O)n1 [Decitabine] | 41.3%
NCCCCNCCCN | 92.8%
CC(=O)N(O)CCCCCNC(=O)CCC(=O)N(O)CCCCCNC(=O)CCC(=O)N(O)CCCCCN | 97.1%
C=CC(C)(O)CCC1C(=C)CC(O)C2C(C)(C)CCCC12C (stereo not given) | 105%
CCNC(=O)CC[C@H](N)C(=O)O | 92.2%
CCN[C@H]1C[C@H](C)S(=O)(=O)c2sc(S(N)(=O)=O)cc21 [Dorzolamide HCL] | 104%
CC(C)/N=c1\cc2n(-c3ccc(Cl)cc3)c3ccccc3nc-2cc1Nc1ccc(Cl)cc1 | 66.1%
C[C@@H]1[C@H](O)[C@@H](C)/C=C/C=C/C=C/C=C/C=C/C=C/C=C/[C@H](O[C@@H]2O[C@H](C)[C@@H](O)[C@H](N)[C@@H]2O)C[C@@H]2O[C@](O)(C[C@@H](O)C[C@@H](O)[C@H](O)CC[C@@H](O)C[C@@H](O)CC(=O)O[C@H]1C)C[C@H](O)[C@H]2C(=O)O | 97.1%
CO[C@@]1(NC(=O)CSCC#N)C(=O)N2C(C(=O)O)=C(CSc3nnnn3C)CS[C@@H]21 | 102%
CCOC(=O)C(C)(C)Oc1ccc(Cl)cc1 | 97.2%
CN1CCc2cccc3c2[C@H]1Cc1ccc(O)c(O)c1-3 | 97.1%
C[C@H](NC(=O)Cc1cc(F)cc(F)c1)C(=O)N[C@H](C(=O)OC(C)(C)C)c1ccccc1 | 76.1%
